One substance from patent US7481994B2, “Calcium biosensor polypeptides and methods of use” (The Board of Trustees of the Leland Stanford Junior …, priority 2005, dated 2009) can be followed below.

This data set relates to HeLa cells. In words: Live-cell confocal imaging of fluorescent STIM1 distribution. It is filed as cell-based, human. The protocol:
Panel A: YFP-STIM1 redistributes into punctate structures following Ca^2+ store depletion. HeLa cells were co-transfected with YFP-STIM1 and a CFP-tagged ER marker. CFP/YFP confocal images of the same cell were taken before (top two panels) and 8 minutes after (bottom two panels) histamine plus thapsigargin stimulation. The arrows point to peripheral sites rich in puncta. The magnified panels on the right show the co-localization of STIM1 with the ER marker before stimulation. […] HeLa cells were co-transfected with YFP-STIM1(D76A) and a CFP-ER marker. CFP/YFP confocal images of the same cell were taken before (top two panels) and 8 minutes after (bottom two panels) histamine plus thapsigargin stimulation. Scale bar=10 μm. […]
FIG. 4 is a set of photographs and a graph showing that STIM1 exists in two localization states and is rapidly redistributed into puncta near the plasma membrane following Ca^2+ store depletion. […] Panel C: Kinetic analysis of the average relative fluorescence intensity in near plasma membrane YFP-STIM1 puncta (n=212; an exponential fit is shown). […]
NF-ATc1 translocation was monitored in HeLa cells co-transfected with NF-ATc1-YFP and pECFP-Nuc plasmids with ImageXpress 5000A using a 10× objective. […] Images were analyzed using the MetaMorph software (Universal Imaging Corporation).

For “YFP-STIM1 EF-hand mutant: YFP-conjugated EF-hand mutant of STIM1, D76A; calcium-insensitive marker”, the localization before stimulation result (before histamine plus thapsigargin) is reported as “already significantly pre-localized in puncta before stimulation”. In addition, the “effect of Ca2+ store depletion on localization” value (histamine plus thapsigargin) is recorded as “no significant additional effect”.
